Here are results for 24 targets from the supplement of paper PMC12819154, “High-throughput peptide-centric local stability assay extends protein–ligand identification to membrane proteins, tissues and bacteria” (Nature Structural & Molecular Biology, 2025).

Amino acid sequences for entries named in this document (tags omitted). A change or cut given only in a name is not applied to a line headed by its entry.
UniProt P25553: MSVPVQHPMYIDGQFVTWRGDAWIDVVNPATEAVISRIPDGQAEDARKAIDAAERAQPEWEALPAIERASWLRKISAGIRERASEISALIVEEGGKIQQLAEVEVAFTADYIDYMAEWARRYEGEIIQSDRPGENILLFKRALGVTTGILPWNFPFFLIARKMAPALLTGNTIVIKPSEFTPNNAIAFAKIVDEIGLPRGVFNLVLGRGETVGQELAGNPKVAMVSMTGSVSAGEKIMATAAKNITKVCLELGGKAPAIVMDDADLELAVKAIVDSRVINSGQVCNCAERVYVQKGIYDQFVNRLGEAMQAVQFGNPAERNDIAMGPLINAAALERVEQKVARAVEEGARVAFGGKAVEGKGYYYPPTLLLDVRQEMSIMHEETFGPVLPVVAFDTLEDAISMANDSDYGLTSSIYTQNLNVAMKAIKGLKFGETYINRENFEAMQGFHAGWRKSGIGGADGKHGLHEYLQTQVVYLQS
UniProt P33602: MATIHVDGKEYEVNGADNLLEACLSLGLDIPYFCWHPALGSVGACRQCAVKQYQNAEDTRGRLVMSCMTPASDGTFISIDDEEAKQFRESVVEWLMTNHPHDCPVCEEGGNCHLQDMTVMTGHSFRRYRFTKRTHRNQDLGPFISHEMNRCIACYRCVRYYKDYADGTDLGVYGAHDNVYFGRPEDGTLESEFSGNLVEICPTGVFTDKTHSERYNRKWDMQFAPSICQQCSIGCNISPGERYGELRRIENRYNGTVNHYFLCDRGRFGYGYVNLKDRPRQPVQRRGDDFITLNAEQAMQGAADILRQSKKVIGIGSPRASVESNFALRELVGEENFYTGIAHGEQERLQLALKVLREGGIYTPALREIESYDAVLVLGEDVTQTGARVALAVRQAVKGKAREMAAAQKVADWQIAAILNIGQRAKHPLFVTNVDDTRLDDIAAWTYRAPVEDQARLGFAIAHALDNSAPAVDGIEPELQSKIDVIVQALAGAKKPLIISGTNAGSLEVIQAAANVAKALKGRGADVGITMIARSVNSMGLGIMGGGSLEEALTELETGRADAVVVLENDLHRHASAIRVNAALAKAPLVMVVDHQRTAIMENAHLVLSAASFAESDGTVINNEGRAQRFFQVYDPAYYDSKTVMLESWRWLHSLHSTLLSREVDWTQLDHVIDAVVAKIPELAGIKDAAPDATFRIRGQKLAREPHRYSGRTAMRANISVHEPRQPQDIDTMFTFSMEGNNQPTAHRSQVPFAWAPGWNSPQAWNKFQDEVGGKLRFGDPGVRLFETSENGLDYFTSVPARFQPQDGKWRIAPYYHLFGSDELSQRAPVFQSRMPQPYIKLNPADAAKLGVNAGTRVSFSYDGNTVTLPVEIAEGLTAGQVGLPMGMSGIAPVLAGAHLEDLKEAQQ
UniProt P31467: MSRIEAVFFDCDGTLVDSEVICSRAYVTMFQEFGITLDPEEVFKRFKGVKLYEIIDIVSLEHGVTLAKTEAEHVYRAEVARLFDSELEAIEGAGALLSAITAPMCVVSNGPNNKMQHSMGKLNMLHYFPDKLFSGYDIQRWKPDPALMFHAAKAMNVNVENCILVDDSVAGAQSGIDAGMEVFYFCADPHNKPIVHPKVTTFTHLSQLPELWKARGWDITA
UniProt P31470: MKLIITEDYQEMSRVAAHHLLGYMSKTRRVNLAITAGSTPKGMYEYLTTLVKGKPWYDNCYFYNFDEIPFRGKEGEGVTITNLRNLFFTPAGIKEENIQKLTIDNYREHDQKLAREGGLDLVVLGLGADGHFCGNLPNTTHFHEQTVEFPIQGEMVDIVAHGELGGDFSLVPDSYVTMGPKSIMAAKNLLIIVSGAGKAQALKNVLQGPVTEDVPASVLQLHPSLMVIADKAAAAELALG
UniProt P31469: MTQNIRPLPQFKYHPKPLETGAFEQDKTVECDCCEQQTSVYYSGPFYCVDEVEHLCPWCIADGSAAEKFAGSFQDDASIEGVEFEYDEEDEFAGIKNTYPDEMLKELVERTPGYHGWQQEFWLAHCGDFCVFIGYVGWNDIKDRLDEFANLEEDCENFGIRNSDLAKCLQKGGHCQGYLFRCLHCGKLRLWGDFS
UniProt P25738: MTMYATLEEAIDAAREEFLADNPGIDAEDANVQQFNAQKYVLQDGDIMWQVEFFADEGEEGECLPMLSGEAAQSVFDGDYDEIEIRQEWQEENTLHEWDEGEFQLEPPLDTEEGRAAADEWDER
UniProt P33570: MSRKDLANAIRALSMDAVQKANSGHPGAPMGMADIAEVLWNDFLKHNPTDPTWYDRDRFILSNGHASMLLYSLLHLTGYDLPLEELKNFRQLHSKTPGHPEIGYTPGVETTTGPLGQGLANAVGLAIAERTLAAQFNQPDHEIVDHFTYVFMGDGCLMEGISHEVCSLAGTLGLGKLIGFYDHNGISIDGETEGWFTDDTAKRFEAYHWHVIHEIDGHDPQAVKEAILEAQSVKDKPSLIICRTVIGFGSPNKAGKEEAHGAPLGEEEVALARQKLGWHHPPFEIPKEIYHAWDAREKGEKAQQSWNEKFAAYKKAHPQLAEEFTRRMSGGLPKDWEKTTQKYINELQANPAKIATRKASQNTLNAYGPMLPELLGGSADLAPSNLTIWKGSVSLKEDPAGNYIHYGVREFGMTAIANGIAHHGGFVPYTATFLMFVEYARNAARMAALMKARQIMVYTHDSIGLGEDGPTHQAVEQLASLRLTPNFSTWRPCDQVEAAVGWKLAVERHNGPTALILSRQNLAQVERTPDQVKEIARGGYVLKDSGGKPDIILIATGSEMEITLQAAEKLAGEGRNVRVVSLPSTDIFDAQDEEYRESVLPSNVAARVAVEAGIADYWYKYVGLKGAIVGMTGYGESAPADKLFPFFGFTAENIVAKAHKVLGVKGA
UniProt P27896: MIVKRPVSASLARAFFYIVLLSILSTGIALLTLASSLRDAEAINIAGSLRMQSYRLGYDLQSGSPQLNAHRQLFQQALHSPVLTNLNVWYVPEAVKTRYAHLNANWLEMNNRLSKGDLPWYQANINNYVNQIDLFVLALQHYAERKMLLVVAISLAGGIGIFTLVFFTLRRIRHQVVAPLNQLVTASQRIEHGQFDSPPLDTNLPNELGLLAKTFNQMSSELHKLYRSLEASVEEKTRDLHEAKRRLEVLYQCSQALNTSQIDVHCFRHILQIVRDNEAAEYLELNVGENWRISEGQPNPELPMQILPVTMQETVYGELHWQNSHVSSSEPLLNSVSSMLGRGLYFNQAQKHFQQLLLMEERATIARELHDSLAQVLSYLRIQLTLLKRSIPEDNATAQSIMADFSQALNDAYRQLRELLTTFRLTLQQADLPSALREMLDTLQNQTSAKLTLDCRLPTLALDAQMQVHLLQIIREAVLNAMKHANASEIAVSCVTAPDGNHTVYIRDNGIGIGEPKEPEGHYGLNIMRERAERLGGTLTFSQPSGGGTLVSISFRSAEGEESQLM
UniProt P33234: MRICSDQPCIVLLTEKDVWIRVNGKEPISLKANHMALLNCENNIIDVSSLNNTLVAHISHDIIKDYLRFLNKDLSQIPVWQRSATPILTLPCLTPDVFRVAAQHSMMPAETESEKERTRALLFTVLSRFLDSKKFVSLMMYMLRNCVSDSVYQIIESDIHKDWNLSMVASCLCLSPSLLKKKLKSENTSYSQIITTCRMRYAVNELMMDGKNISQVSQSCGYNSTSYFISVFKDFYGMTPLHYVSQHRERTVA
UniProt P24555: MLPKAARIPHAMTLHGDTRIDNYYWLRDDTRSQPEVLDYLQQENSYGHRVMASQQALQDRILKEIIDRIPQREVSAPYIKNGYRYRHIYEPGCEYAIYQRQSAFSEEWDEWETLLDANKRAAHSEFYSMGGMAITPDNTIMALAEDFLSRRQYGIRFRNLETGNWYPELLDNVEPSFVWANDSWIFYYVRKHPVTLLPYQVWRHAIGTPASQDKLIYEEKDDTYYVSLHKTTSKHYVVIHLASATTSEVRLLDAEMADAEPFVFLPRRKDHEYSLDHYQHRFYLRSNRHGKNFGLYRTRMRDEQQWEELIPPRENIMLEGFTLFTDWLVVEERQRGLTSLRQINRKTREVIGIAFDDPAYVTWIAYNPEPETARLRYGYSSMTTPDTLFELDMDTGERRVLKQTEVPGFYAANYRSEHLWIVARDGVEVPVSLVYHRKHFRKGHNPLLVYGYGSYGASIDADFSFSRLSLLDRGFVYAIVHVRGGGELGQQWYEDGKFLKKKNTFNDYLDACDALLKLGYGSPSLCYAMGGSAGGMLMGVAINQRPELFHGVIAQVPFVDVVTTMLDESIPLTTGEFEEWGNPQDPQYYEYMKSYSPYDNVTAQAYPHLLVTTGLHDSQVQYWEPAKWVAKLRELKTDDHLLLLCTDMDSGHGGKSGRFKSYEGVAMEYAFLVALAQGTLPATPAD
UniProt P31433: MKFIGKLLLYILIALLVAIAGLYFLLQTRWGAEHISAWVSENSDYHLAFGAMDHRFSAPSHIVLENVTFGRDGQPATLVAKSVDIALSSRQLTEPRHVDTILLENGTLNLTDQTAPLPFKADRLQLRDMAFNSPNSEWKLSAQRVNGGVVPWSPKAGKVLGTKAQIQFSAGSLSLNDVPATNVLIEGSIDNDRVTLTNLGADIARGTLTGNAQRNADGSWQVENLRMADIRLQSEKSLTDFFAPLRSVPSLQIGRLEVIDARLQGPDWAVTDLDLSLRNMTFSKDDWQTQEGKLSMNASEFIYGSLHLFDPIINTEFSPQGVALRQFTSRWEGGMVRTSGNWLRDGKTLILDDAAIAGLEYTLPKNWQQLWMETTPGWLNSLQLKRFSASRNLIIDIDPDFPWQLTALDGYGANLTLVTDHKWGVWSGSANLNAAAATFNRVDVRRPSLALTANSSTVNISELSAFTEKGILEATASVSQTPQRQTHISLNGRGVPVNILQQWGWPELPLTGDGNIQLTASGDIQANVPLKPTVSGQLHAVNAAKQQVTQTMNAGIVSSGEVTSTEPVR
UniProt P25539: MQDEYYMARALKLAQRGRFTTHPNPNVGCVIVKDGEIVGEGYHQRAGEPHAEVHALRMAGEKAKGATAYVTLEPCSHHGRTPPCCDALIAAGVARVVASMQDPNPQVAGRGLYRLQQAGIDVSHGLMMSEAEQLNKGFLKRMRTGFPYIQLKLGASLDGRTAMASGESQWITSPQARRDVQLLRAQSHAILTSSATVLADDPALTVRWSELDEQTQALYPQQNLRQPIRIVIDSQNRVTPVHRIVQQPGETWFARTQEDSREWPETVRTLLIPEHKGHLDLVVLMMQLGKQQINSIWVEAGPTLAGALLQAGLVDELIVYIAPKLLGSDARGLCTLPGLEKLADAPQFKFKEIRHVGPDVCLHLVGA
UniProt P31475: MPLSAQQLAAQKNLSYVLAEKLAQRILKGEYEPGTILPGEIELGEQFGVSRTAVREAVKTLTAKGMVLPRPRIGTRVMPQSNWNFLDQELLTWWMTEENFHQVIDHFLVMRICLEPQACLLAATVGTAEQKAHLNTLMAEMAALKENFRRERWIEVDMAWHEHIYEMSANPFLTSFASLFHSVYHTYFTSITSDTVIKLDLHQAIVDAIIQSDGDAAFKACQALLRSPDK
UniProt P25666: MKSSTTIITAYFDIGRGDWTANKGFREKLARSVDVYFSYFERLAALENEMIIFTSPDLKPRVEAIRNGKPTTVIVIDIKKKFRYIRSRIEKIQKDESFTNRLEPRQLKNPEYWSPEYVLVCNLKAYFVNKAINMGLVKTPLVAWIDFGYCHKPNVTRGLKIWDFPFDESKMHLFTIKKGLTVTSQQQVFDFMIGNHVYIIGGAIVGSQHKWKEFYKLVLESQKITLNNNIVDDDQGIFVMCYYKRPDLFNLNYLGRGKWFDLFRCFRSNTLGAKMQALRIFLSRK
UniProt P30749: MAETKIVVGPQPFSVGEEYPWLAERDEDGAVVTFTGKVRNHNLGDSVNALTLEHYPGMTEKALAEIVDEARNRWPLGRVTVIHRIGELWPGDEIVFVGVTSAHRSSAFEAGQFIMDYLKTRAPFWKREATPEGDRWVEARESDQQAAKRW
UniProt P26646: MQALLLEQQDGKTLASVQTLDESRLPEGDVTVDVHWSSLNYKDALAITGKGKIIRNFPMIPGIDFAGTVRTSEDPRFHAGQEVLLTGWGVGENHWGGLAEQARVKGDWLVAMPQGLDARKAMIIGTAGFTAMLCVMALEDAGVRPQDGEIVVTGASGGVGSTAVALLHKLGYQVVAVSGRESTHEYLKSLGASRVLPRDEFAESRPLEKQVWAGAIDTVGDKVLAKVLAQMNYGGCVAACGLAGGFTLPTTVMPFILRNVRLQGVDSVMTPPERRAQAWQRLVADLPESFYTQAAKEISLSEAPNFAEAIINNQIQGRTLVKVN
UniProt P33371: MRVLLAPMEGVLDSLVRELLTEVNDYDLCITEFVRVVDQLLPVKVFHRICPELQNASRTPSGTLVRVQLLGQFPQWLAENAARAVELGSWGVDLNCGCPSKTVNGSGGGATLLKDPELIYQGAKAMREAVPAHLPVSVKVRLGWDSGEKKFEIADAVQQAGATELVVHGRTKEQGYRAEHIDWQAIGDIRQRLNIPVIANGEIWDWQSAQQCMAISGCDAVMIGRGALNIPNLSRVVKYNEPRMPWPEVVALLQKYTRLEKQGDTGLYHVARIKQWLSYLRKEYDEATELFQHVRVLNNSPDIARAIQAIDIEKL

This is one part of the list. Most entries show no effect beyond the scatter of the controls.

Compound in this test: CC1(C)S[C@@H]2[C@H](NC(=O)[C@H](N)c3ccccc3)C(=O)N2[C@H]1C(=O)O [ampicillin]
As to the kind of experiment: log2 fold change of tryptic peptide abundance, ligand vs vehicle (limited proteolysis) (log2 ratio); higher = more trypsin-susceptible (destabilized). To be noted: ligand concentration: 10 uM; sample: E. coli crude lysate.
For the target “UniProt P25553 (peptide sequence: ERASEISALIVEEGGK, peptide start residue: 81)”, the log2 fold change is -0.43.

On to “UniProt P33602 (peptide sequence: FQPQDGKWR, peptide start residue: 803)”, for which the log2 fold change is -0.687. Under “UniProt P31467 (peptide sequence: TEAEHVYR, peptide start residue: 69)” stands -0.554.

With “UniProt P32140 (peptide sequence: GLFNATVR, peptide start residue: 280)”, the log2 fold change was -0.111.

“UniProt P30847 (peptide sequence: LAAGDFTTR, peptide start residue: 203)”: the log2 fold change stood at 0.305. For “UniProt P33368 (peptide sequence: IINITSVHEHTPLPDASAYTAAK, peptide start residue: 135)”, the log2 fold change is -0.275. As for “UniProt P31455 (peptide sequence: GGSHVHVFSPNGER, peptide start residue: 136)”, the log2 fold change was 0.19. Regarding “UniProt P31470 (peptide sequence: RVNLAITAGSTPK, peptide start residue: 29)”, the log2 fold change was -0.22. Consider “UniProt P31469 (peptide sequence: NTYPDEMLK, peptide start residue: 97)”, for which the log2 fold change amounted to 0.111.

As to “UniProt P25738 (peptide sequence: AAADEWDER, peptide start residue: 116)”, the log2 fold change is -0.038. Under “UniProt P33570 (peptide sequence: QNLAQVER, peptide start residue: 520)” stands -0.659; under “UniProt P26365 (peptide sequence: LVVDLTENGKTEAVKR, peptide start residue: 98)”, 0.175; under “UniProt P27896 (peptide sequence: DNGIGIGEPK, peptide start residue: 508)”, -0.348. Under “UniProt P33234 (peptide sequence: VNGKEPISLK, peptide start residue: 22)” stands 0.286. For the target “UniProt P24555 (peptide sequence: VMASQQALQDR, peptide start residue: 50)”, the log2 fold change was -0.794. To “UniProt P31433 (peptide sequence: VNGGVVPWSPK, peptide start residue: 145)” belongs 0.199; to “UniProt P25539 (peptide sequence: TGFPYIQLK, peptide start residue: 144)”, -0.763; to “UniProt P31475 (peptide sequence: TAVREAVKTLTAK, peptide start residue: 52)”, -0.392. To “UniProt P25666 (peptide sequence: MHLFTIK, peptide start residue: 171)” belongs 0.293; to “UniProt P30749 (peptide sequence: ESDQQAAK, peptide start residue: 141)”, -0.233. Under “UniProt P26646 (peptide sequence: LGYQVVAVSGR, peptide start residue: 170)” stands 0.114. Regarding “UniProt P24241 (peptide sequence: KYQSVQPTVAK, peptide start residue: 470)”, the log2 fold change is -0.517. Under “UniProt P28634 (peptide sequence: WRVTDAGFEVFALEPR, peptide start residue: 220)” stands -0.333; under “UniProt P33371 (peptide sequence: KEYDEATELFQHVR, peptide start residue: 282)”, 0.939.
